Results on one molecule are retold here after US20090137002A1 (published 2009).

Chains of the proteins cited; added tags and fusions are not shown. Residues count along the entry.
UniProt P54760, residues 16-987: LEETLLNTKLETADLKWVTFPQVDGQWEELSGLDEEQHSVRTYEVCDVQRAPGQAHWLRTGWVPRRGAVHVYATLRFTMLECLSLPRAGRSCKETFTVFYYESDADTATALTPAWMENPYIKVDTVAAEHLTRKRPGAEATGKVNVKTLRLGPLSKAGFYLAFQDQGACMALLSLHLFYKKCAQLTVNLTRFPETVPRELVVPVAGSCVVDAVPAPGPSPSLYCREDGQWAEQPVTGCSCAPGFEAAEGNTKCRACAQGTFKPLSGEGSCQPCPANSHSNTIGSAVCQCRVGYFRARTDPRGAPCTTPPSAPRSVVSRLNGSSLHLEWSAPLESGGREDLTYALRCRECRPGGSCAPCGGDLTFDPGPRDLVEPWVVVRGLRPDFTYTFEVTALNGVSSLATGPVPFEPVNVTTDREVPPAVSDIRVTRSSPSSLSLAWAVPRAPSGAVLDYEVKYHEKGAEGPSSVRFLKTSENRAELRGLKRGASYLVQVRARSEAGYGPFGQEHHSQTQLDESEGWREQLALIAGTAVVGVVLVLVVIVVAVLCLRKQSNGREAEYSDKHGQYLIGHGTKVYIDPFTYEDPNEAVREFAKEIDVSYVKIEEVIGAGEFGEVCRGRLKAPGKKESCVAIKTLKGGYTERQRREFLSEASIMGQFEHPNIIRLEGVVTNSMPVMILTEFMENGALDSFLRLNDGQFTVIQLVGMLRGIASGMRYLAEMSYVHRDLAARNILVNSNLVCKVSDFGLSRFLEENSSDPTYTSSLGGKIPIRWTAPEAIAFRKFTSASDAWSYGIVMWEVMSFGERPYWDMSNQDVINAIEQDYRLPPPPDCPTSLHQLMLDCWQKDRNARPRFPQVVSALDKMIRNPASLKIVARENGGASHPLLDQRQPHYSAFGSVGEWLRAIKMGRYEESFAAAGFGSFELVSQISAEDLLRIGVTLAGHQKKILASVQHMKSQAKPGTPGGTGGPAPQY

Assay [1] deals with myc-tagged human EphB4 on transfected CHO cells (human) (UniProt P54760). Kind of assay: FACS titration of IgG4-Pro on CHO-EphB4 cells.
Assay [2] shares this target. Kind of assay: FACS competition on CHO-EphB4 cells, competitor murine ephrin-B2.

No constants are given. Whether binding was seen depends on the method and setting. Some entries that bind do so weakly or less than the wild type.

B1: MOR07724 IgG4-Pro (antibody, V domains shown)
VH: QVQLVESGGGLVQPGGSLRLSCAASGFTFNNAWMSWVRQAPGKGLEWVSGISADGVHKFYADSVKGRFTISRDNSKNTLYLQMNSLRAEDTAVYYCARKGMSFYNNKYAKSMFDLWGQGTLVTVSS
VL: DIELTQPPSVSVAPGQTARISCSGDNLGKKYVHWYQQKPGQAPVLVIYYDSKRPSGIPERFSGSNSGNTATLTISGTQAEDEADYYCSAWTTTMMHIVFGGGTKLTVLG
notes: Fab MOR07724 converted into human IgG4-Pro format
Consider B1, for which the binding entry in assay [1] and in assay [2] was “binds” in each case.
